Some of the results follow.
Target: T1, OsSMF1 (Oryza sativa, UniProt Q6ZLB0 1-436)
T1 sequence: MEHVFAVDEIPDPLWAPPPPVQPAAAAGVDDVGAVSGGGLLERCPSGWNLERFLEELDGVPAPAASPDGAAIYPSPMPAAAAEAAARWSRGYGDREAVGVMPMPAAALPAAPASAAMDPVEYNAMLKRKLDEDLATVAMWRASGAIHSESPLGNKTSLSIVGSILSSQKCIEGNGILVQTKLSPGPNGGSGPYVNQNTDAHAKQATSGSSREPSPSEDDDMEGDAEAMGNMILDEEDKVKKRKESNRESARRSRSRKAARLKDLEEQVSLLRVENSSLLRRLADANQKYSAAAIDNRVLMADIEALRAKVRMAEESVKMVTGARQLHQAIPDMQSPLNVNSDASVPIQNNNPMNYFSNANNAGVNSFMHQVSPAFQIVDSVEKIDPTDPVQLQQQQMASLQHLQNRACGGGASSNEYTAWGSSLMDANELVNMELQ
Assay: protein-binding microarray (RPBM); PBS, 2% BSA, 51.3 ng/ul salmon testes DNA, 50 uM zinc acetate, 200 nM TF, 25 C, 1 h; high values mean tight binding
Conditions: protein: recombinant; tags: N-terminal polyhistidine and DsRed monomer fusion (pET32a); chain copies: 2; label: CyDye5-dUTP incorporated in the synthesized complementary strand; 3' TTTTT single-stranded linker to array surface; dsDNA, one strand shown
Procedure, shortened: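 Transcription factors, each fused N-terminally to a polyhistidine tag and DsRed, were expressed in E. coli BL21-CodonPlus and purified on Ni–NTA. A custom Agilent array was made double-stranded by primer extension with Cy5-dUTP and blocked with 2% BSA. It was incubated with 200 nM protein in PBS, 2% BSA, salmon testes DNA and 50 µM zinc acetate at 25 °C for 1 h, then washed. The binding signal is per-feature fluorescence intensity (arbitrary units) read on an Axon 4000B scanner.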

Sequence | binding signal
GCACTGAATGCGGTCGTATTGGCTTTGTATTTTGGTGTTGCGGAGTCACCTAGTGCAG | 3260 fluorescence intensity (a.u.)
TCGCTGCCCTCCCGCCCGTTGGCCGAAGGGGAAGAAGGGGCGGAGTCACCTAGTGCAG | 36900 fluorescence intensity (a.u.)
ACGCCACGCGCCACCGGCGATCTCGTCCGTCCACGTCCCACGGAGTCACCTAGTGCAG | 5670 fluorescence intensity (a.u.)
CGTTATTATTGTCTTTCGCATGATCGTATCCGCACGTATGCGGAGTCACCTAGTGCAG | 3490 fluorescence intensity (a.u.)
TCGAAAGGAACAGGGACCCTGTCAGCAGGTGGCTGATCCTCGGAGTCACCTAGTGCAG | 4100 fluorescence intensity (a.u.)
GAGGCGGAGCTACAAATATCCATCCCTTCCAATCCAGGCTCGGAGTCACCTAGTGCAG | 3220 fluorescence intensity (a.u.)
TAGATTAATTTGGAATGGAGGGAGTATATGAGTAAGCTAACGGAGTCACCTAGTGCAG | 3200 fluorescence intensity (a.u.)
GCGTGATTCATGCAGCGTGTGCGAAGTACACCAGATCTCACGGAGTCACCTAGTGCAG | 3850 fluorescence intensity (a.u.)
CTTAATTACGTCATCGTCAACTCGCCGTTTAGTTTAGTCTCGGAGTCACCTAGTGCAG | 10800 fluorescence intensity (a.u.)
CACAGTTGTGTGACCGACGAGCTTGTTTTATAAAATTACACGGAGTCACCTAGTGCAG | 3450 fluorescence intensity (a.u.)
GAATGGAATTGGAACGTTTCTCTGACACGTGGGGCCCACGCGGAGTCACCTAGTGCAG | 11200 fluorescence intensity (a.u.)
CAGAAGACGCCGAAGACTGCTCCGCCACATCACTAATGCCCGGAGTCACCTAGTGCAG | 5280 fluorescence intensity (a.u.)
ACCTCTCCCCGTGAAATAGCCCACGTATGCGCCCCGCGTGCGGAGTCACCTAGTGCAG | 8860 fluorescence intensity (a.u.)
GCGCGCGCGGCGTTCGGGAGGAAGCGGAAGAGCGCGCCGGCGGAGTCACCTAGTGCAG | 47000 fluorescence intensity (a.u.)
AACTGACGCCGCCGCCGCGCGCAGTCGATGCATGTTGGGTCGGAGTCACCTAGTGCAG | 4540 fluorescence intensity (a.u.)
CACGGGGAAGAAGAAGAGGAGGTTCGCGGCGGGTGATTTGCGGAGTCACCTAGTGCAG | 3210 fluorescence intensity (a.u.)
AGGCAAGAAAACGGAGGAGGAAAACTAGGCCACGCATTGACGGAGTCACCTAGTGCAG | 4060 fluorescence intensity (a.u.)
CGGCGGTGGACTCCCGCGCGCGTCGGCGGGTGCCTGCGGCCGGAGTCACCTAGTGCAG | 3170 fluorescence intensity (a.u.)
GCTCATGGCCACAGGGCTTAACATAGAATCATCTTAATTGCGGAGTCACCTAGTGCAG | 3640 fluorescence intensity (a.u.)
GTTTCGCGCTCGTGGTTTCTTACTTGACGCACGTGCAATCCGGAGTCACCTAGTGCAG | 3260 fluorescence intensity (a.u.)
CTATAGTATGACTCAACTTTATAAACTACATTCTAACTAACGGAGTCACCTAGTGCAG | 4410 fluorescence intensity (a.u.)

Sequence | binding signal
AGAGTGTGTTCTTGGTCAGATGCCACTTGTATTCCACTACCGGAGTCACCTAGTGCAG | 3860 fluorescence intensity (a.u.)
TAGGATGACATGTGAGGCCCACATGTCAGTGGGCCCCACACGGAGTCACCTAGTGCAG | 25600 fluorescence intensity (a.u.)
TGCACTCATACCACGACACACGCACACACGTGTCCCTAACCGGAGTCACCTAGTGCAG | 7120 fluorescence intensity (a.u.)
CATTTTAGGTTGCAGCTTATTTGATGCTATGGACACCATCCGGAGTCACCTAGTGCAG | 29700 fluorescence intensity (a.u.)
AACGTACGGATAACGGATGGATCGCCTCGTCCGTCTTGGCCGGAGTCACCTAGTGCAG | 23700 fluorescence intensity (a.u.)
GACCCCACGTGTCAGGATGCCACGTCGGCAAGCCATCCTCCGGAGTCACCTAGTGCAG | 33900 fluorescence intensity (a.u.)
CGCTCTTGAGTCTTGACTTTCTCTGCCACGAGAGCTCATCCGGAGTCACCTAGTGCAG | 3280 fluorescence intensity (a.u.)
CTCATCTCCTTTCGTACCGTATATAAGAGCCACCCCATGCCGGAGTCACCTAGTGCAG | 3430 fluorescence intensity (a.u.)
AAATCGGATTTTCGCGTGCGGGTTCTGATGACGTCCGCACCGGAGTCACCTAGTGCAG | 11600 fluorescence intensity (a.u.)
GTGCAGTCTGCGGTTCTCTCTTGATGACTGGCTCATAATGCGGAGTCACCTAGTGCAG | 4370 fluorescence intensity (a.u.)
GCCTCACAACCCGCATGGACACTGACATCGGCATCATCATCGGAGTCACCTAGTGCAG | 4260 fluorescence intensity (a.u.)
TACGTGTGAGTCTTCAACCGTCCACATCAGCGTGGAGAAGCGGAGTCACCTAGTGCAG | 13900 fluorescence intensity (a.u.)
TTGAATAGTGAGTCATGCAAACGGTTCCTTCTCAAACCTACGGAGTCACCTAGTGCAG | 8160 fluorescence intensity (a.u.)
GCCGCCCAAGAAGAGGACACGCAGGACGTACAGCCGTGGCCGGAGTCACCTAGTGCAG | 3470 fluorescence intensity (a.u.)
TATCAAATTTCTTTTCGAGTCCTACCAATCGACGTGTATCCGGAGTCACCTAGTGCAG | 3710 fluorescence intensity (a.u.)
ACCAGCAGCCATCACCGCATGCGTTACTACGTGTGTGCATCGGAGTCACCTAGTGCAG | 3420 fluorescence intensity (a.u.)
TTTGCTGCATCACCATTGTCATCCATATATTCCATATTCCCGGAGTCACCTAGTGCAG | 5740 fluorescence intensity (a.u.)
CTTTAAACTTGCCAACATGCCACGTCAGCAGAAACCACTACGGAGTCACCTAGTGCAG | 17000 fluorescence intensity (a.u.)
CATGCTGAGTCAATAGCTTTCTTTGGTGGTGGATCAAGGGCGGAGTCACCTAGTGCAG | 10700 fluorescence intensity (a.u.)
GCGGAGGAGCGGATAAGCCAAGCTCATGGCCTCCTCCGCGCGGAGTCACCTAGTGCAG | 20200 fluorescence intensity (a.u.)
CACTGCTTTCCCTCCCACCTCACCACACACCACGCCACTCCGGAGTCACCTAGTGCAG | 4960 fluorescence intensity (a.u.)

Four records picked at random from those above, as already listed:
Sequence | binding signal
CGCTCTTGAGTCTTGACTTTCTCTGCCACGAGAGCTCATCCGGAGTCACCTAGTGCAG | 3280 fluorescence intensity (a.u.)
TAGGATGACATGTGAGGCCCACATGTCAGTGGGCCCCACACGGAGTCACCTAGTGCAG | 25600 fluorescence intensity (a.u.)
GACCCCACGTGTCAGGATGCCACGTCGGCAAGCCATCCTCCGGAGTCACCTAGTGCAG | 33900 fluorescence intensity (a.u.)
CATTTTAGGTTGCAGCTTATTTGATGCTATGGACACCATCCGGAGTCACCTAGTGCAG | 29700 fluorescence intensity (a.u.)
